{"source": "PubChem BioAssay AID720505 | Drosophila RNAi Screening Center – 2013", "aim": "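Fly regulators or components of the CRAC channel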 (primary screen)", "cells": "Drosophila S2R+ cells", "knock-down reagent": "long dsRNA against Drosophila genes", "treatment": "thapsigargin (2 µM) in calcium-free buffer to empty internal stores, then 2 mM calcium added back", "measurement": "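Fluo-4 signal in 384-well plates read on a FLIPR after thapsigargin (2 µM, calcium-free) store depletion and 2 mM calcium add-back; unnormalised mean endpoint per well; screen run twice, selected wells retested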", "direction": "calcium signal and retest calcium signal: higher = more calcium entry after store depletion", "rule for the call": "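Knock-downs counted as hits when calcium entry dropped relative to STIM1 positive and Rho1 negative controls present on each plate; roughly 1500 genes called, with reductions of differing size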", "calls": "active = called as lowering calcium entry; inactive = not called", "note": "The deposit covers about 20,000 reagents; shown is a random part of those that have a named target and a result. Of all reagents, about 2,100 (10%) are marked active. 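Raw plate signals without normalisation; calls rest on control-based scores that were not deposited; replicate 2 separates called from uncalled poorly.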 A plus sign joins genes that one reagent is predicted to hit. No sequences are given here. Not given: the amount of reagent, the time to read-out."}
{"Target gene": "su(sable)", "DRSC id": "DRSC18839", "calcium signal, replicate 1": 92.4, "calcium signal, replicate 2": 127, "call": "inactive"}
{"Target gene": "RpS24", "DRSC id": "DRSC04414", "calcium signal, replicate 1": 81.4, "calcium signal, replicate 2": 123, "retest calcium signal, replicate 1": 104, "retest calcium signal, replicate 2": 105, "call": "inactive"}
{"Target gene": "ttk", "DRSC id": "DRSC17091", "calcium signal, replicate 1": 55.7, "calcium signal, replicate 2": 105, "call": "active"}
{"Target gene": "CG3662", "DRSC id": "DRSC00626", "calcium signal, replicate 1": 101, "calcium signal, replicate 2": 246, "call": "inactive"}
{"Target gene": "CG5217", "DRSC id": "DRSC15740", "calcium signal, replicate 1": 185, "calcium signal, replicate 2": 108, "call": "inactive"}
{"Target gene": "CG31371", "DRSC id": "DRSC15079", "calcium signal, replicate 1": 136, "calcium signal, replicate 2": 116, "call": "inactive"}
{"Target gene": "bbc", "DRSC id": "DRSC06958", "calcium signal, replicate 1": 179, "calcium signal, replicate 2": 142, "retest calcium signal, replicate 1": 85.6, "retest calcium signal, replicate 2": 114, "call": "inactive"}
{"Target gene": "bbc", "DRSC id": "DRSC22309", "calcium signal, replicate 1": 130, "calcium signal, replicate 2": 219, "call": "inactive"}
{"Target gene": "pkm", "DRSC id": "DRSC19674", "calcium signal, replicate 1": 178, "calcium signal, replicate 2": 128, "call": "inactive"}
{"Target gene": "lsn", "DRSC id": "DRSC16081", "calcium signal, replicate 1": 213, "calcium signal, replicate 2": 178, "call": "inactive"}
{"Target gene": "Dhx15", "DRSC id": "DRSC06036", "calcium signal, replicate 1": 220, "calcium signal, replicate 2": 82.8, "call": "inactive"}
{"Target gene": "CG5435", "DRSC id": "DRSC02860", "calcium signal, replicate 1": 135, "calcium signal, replicate 2": 97.7, "call": "inactive"}
{"Target gene": "CG1307", "DRSC id": "DRSC12492", "calcium signal, replicate 1": 98.6, "calcium signal, replicate 2": 102, "call": "inactive"}
{"Target gene": "eIF3m", "DRSC id": "DRSC07142", "calcium signal, replicate 1": 106, "calcium signal, replicate 2": 156, "call": "inactive"}
{"Target gene": "Ibf2", "DRSC id": "DRSC16551", "calcium signal, replicate 1": 121, "calcium signal, replicate 2": 135, "call": "inactive"}
{"Target gene": "CG4660", "DRSC id": "DRSC18378", "calcium signal, replicate 1": 195, "calcium signal, replicate 2": 102, "call": "inactive"}
{"Target gene": "CG31674", "DRSC id": "DRSC03208", "calcium signal, replicate 1": 165, "calcium signal, replicate 2": 117, "call": "inactive"}
{"Target gene": "Teh4", "DRSC id": "DRSC08457", "calcium signal, replicate 1": 77.3, "calcium signal, replicate 2": 87.5, "call": "inactive"}
{"Target gene": "Ctr1C", "DRSC id": "DRSC15089", "calcium signal, replicate 1": 175, "calcium signal, replicate 2": 120, "call": "inactive"}
{"Target gene": "CG7695", "DRSC id": "DRSC16289", "calcium signal, replicate 1": 159, "calcium signal, replicate 2": 118, "call": "inactive"}
{"Target gene": "CG15576", "DRSC id": "DRSC18064", "calcium signal, replicate 1": 152, "calcium signal, replicate 2": 106, "call": "inactive"}
{"Target gene": "Send1", "DRSC id": "DRSC00482", "calcium signal, replicate 1": 151, "calcium signal, replicate 2": 168, "call": "inactive"}
{"Target gene": "tud", "DRSC id": "DRSC04719", "calcium signal, replicate 1": 70.8, "calcium signal, replicate 2": 96.5, "call": "inactive"}
{"Target gene": "chp", "DRSC id": "DRSC16925", "calcium signal, replicate 1": 88.5, "calcium signal, replicate 2": 96.8, "call": "inactive"}
{"Target gene": "CG11449", "DRSC id": "DRSC11662", "calcium signal, replicate 1": 107, "calcium signal, replicate 2": 139, "call": "inactive"}
{"Target gene": "Creld", "DRSC id": "DRSC00308", "calcium signal, replicate 1": 140, "calcium signal, replicate 2": 89.5, "call": "inactive"}
{"Target gene": "ninaB", "DRSC id": "DRSC16807", "calcium signal, replicate 1": 133, "calcium signal, replicate 2": 176, "call": "inactive"}
{"Target gene": "CG13380 + CG4174", "DRSC id": "DRSC09988", "calcium signal, replicate 1": 104, "calcium signal, replicate 2": 99.8, "call": "inactive"}
{"Target gene": "CG13380 + CG4174", "DRSC id": "DRSC10406", "calcium signal, replicate 1": 93.8, "calcium signal, replicate 2": 84.7, "call": "active"}
{"Target gene": "CG16779", "DRSC id": "DRSC15153", "calcium signal, replicate 1": 117, "calcium signal, replicate 2": 121, "call": "inactive"}
{"Target gene": "twe", "DRSC id": "DRSC03628", "calcium signal, replicate 1": 95.5, "calcium signal, replicate 2": 90.3, "call": "inactive"}
{"Target gene": "CG11192", "DRSC id": "DRSC06057", "calcium signal, replicate 1": 142, "calcium signal, replicate 2": 76.5, "call": "inactive"}
{"Target gene": "scaf6", "DRSC id": "DRSC10075", "calcium signal, replicate 1": 103, "calcium signal, replicate 2": 113, "call": "inactive"}
{"Target gene": "scaf6", "DRSC id": "DRSC10676", "calcium signal, replicate 1": 60.5, "calcium signal, replicate 2": 137, "call": "inactive"}
{"Target gene": "scaf6", "DRSC id": "DRSC10678", "calcium signal, replicate 1": 87.1, "calcium signal, replicate 2": 145, "call": "inactive"}

Reprinted from the entries so far for reference:
{"Target gene": "CG13380 + CG4174", "DRSC id": "DRSC09988", "calcium signal, replicate 1": 104, "calcium signal, replicate 2": 99.8, "call": "inactive"}
{"Target gene": "CG13380 + CG4174", "DRSC id": "DRSC10406", "calcium signal, replicate 1": 93.8, "calcium signal, replicate 2": 84.7, "call": "active"}
{"Target gene": "CG16779", "DRSC id": "DRSC15153", "calcium signal, replicate 1": 117, "calcium signal, replicate 2": 121, "call": "inactive"}
{"Target gene": "twe", "DRSC id": "DRSC03628", "calcium signal, replicate 1": 95.5, "calcium signal, replicate 2": 90.3, "call": "inactive"}
{"Target gene": "CG11192", "DRSC id": "DRSC06057", "calcium signal, replicate 1": 142, "calcium signal, replicate 2": 76.5, "call": "inactive"}
